Read-outs that look alike come from different tables or passages of the source.
Assays:
[1] = system: CT DNA; test: Binding study with CT DNA by UV-vis spectroscopy; parameters: species or system calf
Description: Initially, the UV–vis spectra of complexes 1–5 (2.5 × 10^−5 – 1 × 10^−4 M) were recorded in the presence of incremental amounts of CT DNA (Figure 4), and the changes of the λmax of the bands observed in the spectra of the complexes were monitored as a means to study the interaction between complexes and CT DNA [50] and to calculate the corresponding DNA-binding constants (Kb). As observed, in the UV–vis spectra of the complexes, at least two bands were observed: band I in the range 314–339 nm and band II in the region 380–428 nm. […] These features indicate the interaction of the complexes with CT DNA [51], but may not provide sufficient information to reveal the possible interaction mode. Therefore, for the elucidation of the CT DNA interaction mode, further experiments involving DNA-viscosity measurements and competitive studies with EB were performed. […]
S2Binding studies with CT DNA
The interaction of the compounds with CT DNA was studied by UV-vis spectroscopy, viscosity measurements a nd via competit ive stud ie s with EB by fl uorescence […]
S2.1 Binding study with CT DNA by UV -vis spectroscopy
The interaction of the compounds with CT DNA has been studied by UV-vis spectroscopy in order to investigate the possible binding modes to CT DNA and to calculate the DNA-binding constants (Kb). The Kb constants (in M-1) were determined by the Wolfe-Shimer equation (eq. S1) [S3] and the plots [DNA]/(εA-εf) versus [DNA] using the UV-vis spectra of the compounds (20 -100 μM) recorded for a constant concentration with increasing concentrations of CT DNA for diverse [complex]/[DNA] mixing ratios (= r ).
Control experiments with DMSO were performed and no changes in the spectra of CT DNA were observed. […]
[DNA] = [DNA] + 1 (eq. S1) […]
where [DNA] is the concentration of DNA in base pa irs, εA = Aobsd/[compound ], εf = the extinction coefficient for the free compound and ε b = the extinction coefficient for the compound in the fully bound form. Kb is given by the ratio of slope to the y intercept in plots [DNA]/(εA-εf) versus[DNA]. […]

[2] = system: CT DNA; conditions: cited from earlier work
[3] = first UV band listed in the cell (295–334 nm)
[4] = second UV band listed in the cell (330–421 nm)

Row | Structure (SMILES) | Δλ, blue-/red-shift of λmax upon addition of CT DNA [1, 3] | Δλ, blue-/red-shift of λmax upon addition of CT DNA [1, 4] | Δλ, blue-/red-shift of λmax upon addition of CT DNA ([2]; band at 334 nm) | Δλ, blue-/red-shift of λmax upon addition of CT DNA ([2]; band at 421 nm) [nm] | Δλ, blue-/red-shift of λmax upon addition of CT DNA ([1]; third UV band listed in the cell (405 nm))
1 | O=Cc1cc(F)ccc1[O-].[Cl-].[Cu+2].c1ccc(Nc2ccccn2)nc1 [Complex 2, [Cu(5–F–salo)(bipyam)Cl]] | −3 nm | +20 nm |  |  | 
2 | O=Cc1cc(F)ccc1[O-].O=Cc1cc(F)ccc1[O-].[Cu+2] [Complex 1, [Cu(5–F–salo)2]] | +16 nm | +20 nm |  |  | 
3 | CO.Cc1ccc2ccc3ccc(C)nc3c2n1.O=Cc1cc(F)ccc1[O-].[Cl-].[Cu+2] [Complex 3, [Cu(5–F–salo)(neoc)Cl].CH3OH] | +5 nm | +4 nm |  |  | 
4 | O=Cc1cc(F)ccc1O [5–F–saloH, 5–fluoro–salicylaldehyde] |  |  | +1 nm | 0 | 
5 | O=Cc1cc(F)ccc1[O-].O=[N+]([O-])[O-].[Cu+2].c1cnc2c(c1)ccc1cccnc12 [Complex 4, [Cu(5–F–salo)(phen)(NO3)]] | +4 nm | −4 nm |  |  | +19 nm

— article PMC9782626, “Copper(II) Complexes of 5–Fluoro–Salicylaldehyde: Synthesis, Characterization, Antioxidant Properties, Interaction with DNA and Serum Albumins” (Molecules, 2022)
